The list shows a part of the results. Many values rest on one well or one pass, so single values are uncertain.
System: Saccharomyces cerevisiae BY4743
Test: growth (OD600) with compound + IPBC relative to untreated control; higher = less growth inhibition
Conditions: compound concentration: 133 uM; IPBC concentration: 0.5 ug/ml; 20 h
Experimental: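 NMCCC compounds (133 uM) combined with IPBC (0.5 ug/ml) against Saccharomyces cerevisiae BY4743 in YPD, 96-well plates. Growth was read as OD600 at 20 h and expressed as % of the untreated control. Single pass.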

Compound | growth [%]
COC(=O)CNC(=O)CSc1nnc(-c2ccccc2C)n1-c1ccccc1 + CCCCNC(=O)OCC#CI [3-iodo-2-propynyl butylcarbamate (IPBC)] | 80
CCOC(=O)\C1=C(/C)NC(=O)NC1C2=C(C)SC(=C2)C (stereo unspecified) + CCCCNC(=O)OCC#CI [3-iodo-2-propynyl butylcarbamate (IPBC)] | 97.7
CCC(C)N1CCN(C(=O)CN(C)S(=O)(=O)c2ccc3c(c2)c(=O)n(C)c(=O)n3C)CC1 (stereo unspecified) + CCCCNC(=O)OCC#CI [3-iodo-2-propynyl butylcarbamate (IPBC)] | 106
CCCC(=O)N(c1nc(C)c(C(C)=O)s1)C1CC1 + CCCCNC(=O)OCC#CI [3-iodo-2-propynyl butylcarbamate (IPBC)] | 102
CCOC(=O)c1[nH]nc(C(=O)c2ccccc2)c1-c1ccccc1 + CCCCNC(=O)OCC#CI [3-iodo-2-propynyl butylcarbamate (IPBC)] | 93
CCC(=O)Nc1nc2ccc(CC(=O)NCCN(C)C3CCCCC3)cc2s1 + CCCCNC(=O)OCC#CI [3-iodo-2-propynyl butylcarbamate (IPBC)] | 89.8
COC(=O)CCc1nc(-c2nonc2N)no1 + CCCCNC(=O)OCC#CI [3-iodo-2-propynyl butylcarbamate (IPBC)] | 109
COCc1nc2ccccc2n1CC(O)COc1ccccc1 (stereo unspecified) + CCCCNC(=O)OCC#CI [3-iodo-2-propynyl butylcarbamate (IPBC)] | 106
O=C(CNC(=O)c1ccccc1)NN1S(=O)(=O)c2ccccc2S1(=O)=O + CCCCNC(=O)OCC#CI [3-iodo-2-propynyl butylcarbamate (IPBC)] | 103
CCN(CC(=O)NC1=CC=C(NC(C)=O)C=C1)C(=O)C/2=N/N(C)C(=O)/C=C2 + CCCCNC(=O)OCC#CI [3-iodo-2-propynyl butylcarbamate (IPBC)] | 109
Cc1cc(Cl)ccc1Nc1nc(N)c(C(=O)C(C)C)s1 + CCCCNC(=O)OCC#CI [3-iodo-2-propynyl butylcarbamate (IPBC)] | 3.81
Nn1c(SCC(=O)NC(=O)NCc2ccccc2)nnc1C1CC1 + CCCCNC(=O)OCC#CI [3-iodo-2-propynyl butylcarbamate (IPBC)] | 91.6
CC1=CC=CC(=C1C)NC(=O)CNC(=O)CN2\N=C(\C(N)=O)C3=CC=CC=C3C2=O + CCCCNC(=O)OCC#CI [3-iodo-2-propynyl butylcarbamate (IPBC)] | 106
CC(C)(C)NC(=O)CN1CCCN(C(=O)CCc2ccc(S(=O)(=O)N3CCOCC3)cc2)CC1 + CCCCNC(=O)OCC#CI [3-iodo-2-propynyl butylcarbamate (IPBC)] | 105
N#Cc1ccc(CSc2ccc(S(=O)(=O)N3CCCC3)cn2)cc1 + CCCCNC(=O)OCC#CI [3-iodo-2-propynyl butylcarbamate (IPBC)] | 85.3
FC1=CC=CC(=C1)CCNC(=O)CCC(=O)N\2CC\C(=N2)C3=CC=CC=C3 + CCCCNC(=O)OCC#CI [3-iodo-2-propynyl butylcarbamate (IPBC)] | 107
CCC(=O)N1CCc2cc(Br)c(S(=O)(=O)N3CCN(CC)CC3)cc21 + CCCCNC(=O)OCC#CI [3-iodo-2-propynyl butylcarbamate (IPBC)] | 80
COc1cc(Cl)c(C)cc1NC(=O)NCc1noc2ccccc12 + CCCCNC(=O)OCC#CI [3-iodo-2-propynyl butylcarbamate (IPBC)] | 91.7
CNS(=O)(=O)c1cc(C(=O)N2CCN(S(=O)(=O)c3cc(OC)ccc3OC)CC2)n(C)c1 + CCCCNC(=O)OCC#CI [3-iodo-2-propynyl butylcarbamate (IPBC)] | 97.7
COc1ccc(C2N(c3ccc(Cl)cc3)C(=O)C(C)S2(=O)=O)cc1 (stereo unspecified) + CCCCNC(=O)OCC#CI [3-iodo-2-propynyl butylcarbamate (IPBC)] | 96.1
CSc1nc2ccc(NC(=O)CSC(C)C(=O)Nc3cc(C)on3)cc2s1 (stereo unspecified) + CCCCNC(=O)OCC#CI [3-iodo-2-propynyl butylcarbamate (IPBC)] | 111

2 entries from above, with each value named.
Nn1c(SCC(=O)NC(=O)NCc2ccccc2)nnc1C1CC1 + CCCCNC(=O)OCC#CI [3-iodo-2-propynyl butylcarbamate (IPBC)]
  growth [%]: 91.6
CSc1nc2ccc(NC(=O)CSC(C)C(=O)Nc3cc(C)on3)cc2s1 (stereo unspecified) + CCCCNC(=O)OCC#CI [3-iodo-2-propynyl butylcarbamate (IPBC)]
  growth [%]: 111

Reference: the supplement of paper PMC8007513
